These are yes or no findings as the source states them, for the method shown. Binding seen in cells or lysates may run through a third protein. Some results given as binding are weak or reduced against the parent protein; the word gives no strength. Each block holds one substance with its values, some of them ahead of it.
Legend:
[1] = biological target: p-Smad3 (human (endogenous in MCF10A, MDA-MB231, BT549, MCF7 and T47D)) (UniProt P84022); assay: co-IP; MCF10A (legend: HMLE), MDA-MB231 and BT549 cells transfected with ERα or Flag-ERα, with/without TGFβ2 (10 ng/mL) treatment (Figure 3J)
[2] = biological target: phosphor-Smad2 (human (endogenous in MCF10A, MDA-MB231, BT549, MCF7 and T47D)) (UniProt Q15796); assay: as above
[3] = biological target: Smad2 (human (endogenous in MCF7 and T47D)) (UniProt Q15796); assay: co-IP; MCF7 and T47D cells, upon TGFβ2 treatment (Figure S3A); which protein was precipitated is not told
[4] = biological target: Smad3 (human (endogenous in MCF7 and T47D)) (UniProt P84022); assay: as above
[5] = biological target: p-Smad3 (human (endogenous in MCF10A, MDA-MB231, BT549, MCF7 and T47D)) (UniProt P84022); assay: co-IP; endogenous proteins of T47D and MCF7 cells, with ERα shRNAs, in the presence of TGFβ2 (10 ng/mL) treatment (Figure 3K, Figure S3H); 'in the nucleus'
[6] = biological target: phosphor-Smad2 (human (endogenous in MCF10A, MDA-MB231, BT549, MCF7 and T47D)) (UniProt Q15796); assay: as above

Amino acid sequences for entries named in this document (tags omitted). A change or cut given only in a name is not applied to a line headed by its entry.
UniProt P84022: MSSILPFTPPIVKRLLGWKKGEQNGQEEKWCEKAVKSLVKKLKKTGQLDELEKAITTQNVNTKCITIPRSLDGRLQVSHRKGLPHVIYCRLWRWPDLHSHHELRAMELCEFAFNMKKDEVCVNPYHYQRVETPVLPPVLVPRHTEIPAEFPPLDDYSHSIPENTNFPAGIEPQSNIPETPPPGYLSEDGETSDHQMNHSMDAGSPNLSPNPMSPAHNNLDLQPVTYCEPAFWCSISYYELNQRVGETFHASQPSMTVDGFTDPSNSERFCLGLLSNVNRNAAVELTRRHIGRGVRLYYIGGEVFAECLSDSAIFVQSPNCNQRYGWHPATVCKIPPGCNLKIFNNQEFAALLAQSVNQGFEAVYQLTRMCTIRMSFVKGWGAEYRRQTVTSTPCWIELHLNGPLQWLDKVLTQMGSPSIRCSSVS
UniProt Q15796: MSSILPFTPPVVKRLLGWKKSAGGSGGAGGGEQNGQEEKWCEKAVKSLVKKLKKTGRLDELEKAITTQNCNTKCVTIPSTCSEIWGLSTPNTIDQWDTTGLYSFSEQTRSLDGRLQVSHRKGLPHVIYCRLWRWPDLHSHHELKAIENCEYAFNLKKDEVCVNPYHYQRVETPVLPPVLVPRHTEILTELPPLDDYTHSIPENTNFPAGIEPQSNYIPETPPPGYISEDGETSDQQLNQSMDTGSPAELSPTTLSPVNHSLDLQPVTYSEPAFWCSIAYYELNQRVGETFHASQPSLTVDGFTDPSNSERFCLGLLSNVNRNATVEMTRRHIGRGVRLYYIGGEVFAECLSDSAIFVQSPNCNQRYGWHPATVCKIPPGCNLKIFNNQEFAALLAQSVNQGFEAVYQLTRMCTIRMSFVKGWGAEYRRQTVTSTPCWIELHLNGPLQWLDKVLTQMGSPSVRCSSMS
UniProt P03372: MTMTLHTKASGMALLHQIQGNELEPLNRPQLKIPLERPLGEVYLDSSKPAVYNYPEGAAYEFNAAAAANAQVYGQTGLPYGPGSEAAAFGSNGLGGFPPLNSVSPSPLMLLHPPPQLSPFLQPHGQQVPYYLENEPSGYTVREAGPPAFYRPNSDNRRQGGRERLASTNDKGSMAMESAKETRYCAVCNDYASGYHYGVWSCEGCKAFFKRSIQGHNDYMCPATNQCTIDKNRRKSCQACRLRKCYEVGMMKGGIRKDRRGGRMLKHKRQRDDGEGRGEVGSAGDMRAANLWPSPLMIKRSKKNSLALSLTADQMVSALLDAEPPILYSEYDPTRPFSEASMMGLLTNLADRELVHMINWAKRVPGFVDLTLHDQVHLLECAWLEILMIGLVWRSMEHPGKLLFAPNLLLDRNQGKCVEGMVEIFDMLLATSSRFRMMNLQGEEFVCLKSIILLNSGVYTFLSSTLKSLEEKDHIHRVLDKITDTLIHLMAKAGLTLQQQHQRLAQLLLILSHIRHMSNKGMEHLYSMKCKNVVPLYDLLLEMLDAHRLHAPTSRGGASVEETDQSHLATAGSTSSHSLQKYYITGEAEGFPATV

- binding [1]: binds
- binding [2]: binds
Substance: ERα expressed in MCF10A, MDA-MB231 and BT549 cells (from UniProt P03372 1-595)

- binding [3]: binds
- binding [4]: binds
Substance: ERα in MCF7 and T47D cells (printed as 'expressed ERα', Figure S3A) (from UniProt P03372 1-595)

- binding [5]: binds
- binding [6]: binds
Substance: Endogenous ERα of MCF7 and T47D cells (from UniProt P03372 1-595)
